Reference: patent US20150259380A1 (SANFORD BURNHAM MEDICAL RESEARCH INSTITUTE, published 2015)
No constants are given. Whether binding was seen depends on the method and setting. Some binding calls cover weakened binding; strength is not graded here. For some assays here: Where a sequence is shown, tags or fusion partners need not be part of it.

Legend:
[1] = target: T1, recombinant human NRP1 (R&D), purified (human, UniProt O14786-2 22-644, limits assumed); experiment: phage binding to NRP1-coated microtiter wells (FIG. 2)
T1 construct: Bought protein; also called purified NRP1; immobilized NRP1
T1 sequence (looked up): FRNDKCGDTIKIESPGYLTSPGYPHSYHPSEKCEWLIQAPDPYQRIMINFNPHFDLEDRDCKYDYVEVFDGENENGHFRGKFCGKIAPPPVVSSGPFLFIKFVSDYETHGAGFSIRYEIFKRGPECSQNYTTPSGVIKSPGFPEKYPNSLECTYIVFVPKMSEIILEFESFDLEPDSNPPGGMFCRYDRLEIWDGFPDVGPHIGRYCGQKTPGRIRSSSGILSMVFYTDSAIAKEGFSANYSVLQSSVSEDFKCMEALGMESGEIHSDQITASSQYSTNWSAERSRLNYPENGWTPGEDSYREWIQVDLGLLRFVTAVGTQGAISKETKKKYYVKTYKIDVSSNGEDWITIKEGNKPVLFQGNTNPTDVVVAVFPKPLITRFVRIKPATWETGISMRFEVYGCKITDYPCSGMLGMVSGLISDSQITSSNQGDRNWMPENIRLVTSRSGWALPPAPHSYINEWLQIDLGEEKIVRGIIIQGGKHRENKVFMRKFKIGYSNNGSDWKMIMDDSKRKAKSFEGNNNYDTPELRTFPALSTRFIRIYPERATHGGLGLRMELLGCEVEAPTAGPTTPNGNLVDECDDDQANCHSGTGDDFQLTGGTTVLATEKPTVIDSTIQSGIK

[2] = target: T2, recombinant human NRP2 Fc chimera (R&D), purified (human) (UniProt O60462); experiment: summary of the phage binding assays
T2 sequence (looked up): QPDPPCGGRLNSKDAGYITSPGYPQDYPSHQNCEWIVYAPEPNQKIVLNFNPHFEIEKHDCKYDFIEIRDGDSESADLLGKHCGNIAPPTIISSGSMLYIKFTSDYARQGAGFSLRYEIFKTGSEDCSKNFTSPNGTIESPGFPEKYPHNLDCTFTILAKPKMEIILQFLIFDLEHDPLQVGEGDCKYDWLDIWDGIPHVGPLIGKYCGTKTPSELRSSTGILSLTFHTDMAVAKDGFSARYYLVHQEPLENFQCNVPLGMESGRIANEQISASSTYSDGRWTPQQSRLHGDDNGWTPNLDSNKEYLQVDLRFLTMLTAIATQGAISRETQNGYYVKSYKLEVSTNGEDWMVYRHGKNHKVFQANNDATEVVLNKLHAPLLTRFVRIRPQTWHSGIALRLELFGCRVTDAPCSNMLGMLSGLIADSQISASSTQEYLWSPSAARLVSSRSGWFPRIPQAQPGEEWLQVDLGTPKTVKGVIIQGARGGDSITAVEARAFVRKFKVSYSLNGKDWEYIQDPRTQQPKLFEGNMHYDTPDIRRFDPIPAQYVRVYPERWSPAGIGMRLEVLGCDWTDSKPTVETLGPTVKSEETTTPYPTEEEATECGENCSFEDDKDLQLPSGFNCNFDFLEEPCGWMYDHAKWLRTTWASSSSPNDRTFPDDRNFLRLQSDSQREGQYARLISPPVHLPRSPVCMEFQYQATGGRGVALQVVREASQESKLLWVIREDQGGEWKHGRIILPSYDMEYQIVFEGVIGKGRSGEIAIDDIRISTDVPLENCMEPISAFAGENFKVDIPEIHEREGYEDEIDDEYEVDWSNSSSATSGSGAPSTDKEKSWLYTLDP

[3] = target: T1, recombinant human NRP1 (R&D), purified; experiment: summary of the phage binding assays
[4] = target: T2, recombinant human NRP2 Fc chimera (R&D), purified (human); experiment: phage binding to NRP2-coated microtiter wells (FIG. 3A)

For CGNKRTR (also called CGNKRTR phage; phage tLyP-1) [tLyP-1 phage (T7 phage displaying CGNKRTR, truncated LyP-1)], the binding [1] was “binds”, the binding [2] was “binds” and the binding [3] was “binds”. The binding [4] was “binds”.

With RPARPAR [RPARPAR phage (T7 phage displaying the prototypic CendR peptide RPARPAR)] the binding [4] was “binds”.
